{"source": "patent US20130090371A1", "about": "“METHODS AND COMPOSITIONS FOR INHIBITION OF BETA2-ADRENERGIC RECEPTOR DEGRADATION” (PRESIDENT AND FELLOWS OF HARVARD COLLEGE, priority 2010, published 2013)", "key": {"mCherry-NEDD4 [1]": {"biological_target": "mCherry-NEDD4 (UniProt P46934)", "experiment": "confocal colocalisation in β2AR-expressing cells (FIG. 8C)"}, "mCherry-NEDD4 [2]": {"biological_target": "mCherry-NEDD4 (UniProt P46934)", "experiment": "confocal colocalisation in 293β2AR cells after agonist (FIG. 8C)"}, "[3]": {"biological_target": "T1, NEDD4 E3 ubiquitin ligase (UniProt P46934-4 1-900, limits assumed)", "T1 construct": "also called ubiquitin ligase NEDD4", "T1 sequence (looked up)": "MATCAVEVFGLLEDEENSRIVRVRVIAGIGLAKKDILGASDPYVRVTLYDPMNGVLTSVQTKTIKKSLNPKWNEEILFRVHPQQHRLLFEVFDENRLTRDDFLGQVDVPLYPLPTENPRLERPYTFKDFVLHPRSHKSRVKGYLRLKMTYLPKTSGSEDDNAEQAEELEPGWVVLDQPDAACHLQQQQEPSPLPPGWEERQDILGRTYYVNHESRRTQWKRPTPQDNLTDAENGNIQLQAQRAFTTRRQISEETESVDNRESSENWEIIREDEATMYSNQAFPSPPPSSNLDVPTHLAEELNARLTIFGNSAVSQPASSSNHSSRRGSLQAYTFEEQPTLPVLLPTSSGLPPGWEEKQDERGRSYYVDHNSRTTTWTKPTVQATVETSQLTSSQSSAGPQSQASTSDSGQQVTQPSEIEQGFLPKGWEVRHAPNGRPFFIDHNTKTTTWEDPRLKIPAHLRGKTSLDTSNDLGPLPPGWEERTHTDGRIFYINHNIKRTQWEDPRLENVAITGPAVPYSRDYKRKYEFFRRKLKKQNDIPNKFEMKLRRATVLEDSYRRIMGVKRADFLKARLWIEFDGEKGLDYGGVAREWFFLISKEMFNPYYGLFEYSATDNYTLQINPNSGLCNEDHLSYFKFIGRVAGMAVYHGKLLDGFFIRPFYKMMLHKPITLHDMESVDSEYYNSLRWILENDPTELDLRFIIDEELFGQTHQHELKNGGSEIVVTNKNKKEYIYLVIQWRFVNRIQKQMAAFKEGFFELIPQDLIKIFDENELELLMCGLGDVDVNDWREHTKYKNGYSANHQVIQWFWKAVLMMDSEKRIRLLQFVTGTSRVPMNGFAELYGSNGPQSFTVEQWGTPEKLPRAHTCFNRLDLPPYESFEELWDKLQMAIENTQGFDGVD", "experiment": "co-immunoprecipitation from transfected cells, immunoblot (FIG. 8B)"}, "[4]": {"biological_target": "T1, NEDD4 E3 ubiquitin ligase", "experiment": "summary of co-IP results"}, "[5]": {"biological_target": "T1, NEDD4 E3 ubiquitin ligase", "experiment": "co-immunoprecipitation, immunoblot (FIG. 8B)"}, "[6]": {"biological_target": "T1, NEDD4 E3 ubiquitin ligase", "experiment": "co-immunoprecipitation, immunoblot (FIG. 8B); residual binding of the single mutant is implied"}}, "note": "Results are given in words; binding and its absence hold for the method and conditions named. For part of these data: In cells and extracts the contact can be indirect. Some results given as binding are weak or reduced against the parent protein; the word gives no strength. For part of these data: Where a sequence is shown, tags or fusion partners need not be part of it."}
{"binder": "ARRDC3-GFP (protein, human, UniProt Q96B67 1-414, looked up, not shown: large carriers) MVLGKVKSLTISFDCLNDSNVPVYSSGDTVSGRVNLEVTGEIRVKSLKIHARGHAKVRWTESRNAGSNTAYTQNYTEEVEYFNHKDILIGHERDDDNSEEGFHTIHSGRHEYAFSFELPQTPLATSFEGRHGSVRYWVKAELHRPWLLPVKLKKEFTVFEHIDINTPSLLSPQAGTKEKTLCCWFCTSGPISLSAKIERKGYTPGESIQIFAEIENCSSRMVVPKAAIYQTQAFYAKGKMKEVKQLVANLRGESLSSGKTETWNGKLLKIPPVSPSILDCSIIRVEYSLMVYVDIPGAMDLFLNLPLVIGTIPLHPFGSRTSSVSSQCSMNMNWLSLSLPERPEAPPSYAEVVTEEQRRNNLAPVSACDDFERALQGPLFAYIQEFRFLPPPLYSEIDPNPDQSADDRPSCPSR", "values": [{"measurement": "binding", "setting": "mCherry-NEDD4 [1]", "value": "binds"}, {"measurement": "binding", "setting": "mCherry-NEDD4 [2]", "value": "binds"}]}
{"binder": "ARRDC3 (arrestin domain containing 3), wild type (protein, human, UniProt Q96B67 1-414, looked up) MVLGKVKSLTISFDCLNDSNVPVYSSGDTVSGRVNLEVTGEIRVKSLKIHARGHAKVRWTESRNAGSNTAYTQNYTEEVEYFNHKDILIGHERDDDNSEEGFHTIHSGRHEYAFSFELPQTPLATSFEGRHGSVRYWVKAELHRPWLLPVKLKKEFTVFEHIDINTPSLLSPQAGTKEKTLCCWFCTSGPISLSAKIERKGYTPGESIQIFAEIENCSSRMVVPKAAIYQTQAFYAKGKMKEVKQLVANLRGESLSSGKTETWNGKLLKIPPVSPSILDCSIIRVEYSLMVYVDIPGAMDLFLNLPLVIGTIPLHPFGSRTSSVSSQCSMNMNWLSLSLPERPEAPPSYAEVVTEEQRRNNLAPVSACDDFERALQGPLFAYIQEFRFLPPPLYSEIDPNPDQSADDRPSCPSR", "values": [{"measurement": "binding", "setting": "[3]", "value": "binds"}, {"measurement": "binding", "setting": "[4]", "value": "binds"}, {"measurement": "binding", "setting": "[5]", "value": "binds"}]}
{"binder": "ARRDC3-AALA (single PPXY motif mutant of ARRDC3) (protein, human, UniProt Q96B67 1-414, looked up) MVLGKVKSLTISFDCLNDSNVPVYSSGDTVSGRVNLEVTGEIRVKSLKIHARGHAKVRWTESRNAGSNTAYTQNYTEEVEYFNHKDILIGHERDDDNSEEGFHTIHSGRHEYAFSFELPQTPLATSFEGRHGSVRYWVKAELHRPWLLPVKLKKEFTVFEHIDINTPSLLSPQAGTKEKTLCCWFCTSGPISLSAKIERKGYTPGESIQIFAEIENCSSRMVVPKAAIYQTQAFYAKGKMKEVKQLVANLRGESLSSGKTETWNGKLLKIPPVSPSILDCSIIRVEYSLMVYVDIPGAMDLFLNLPLVIGTIPLHPFGSRTSSVSSQCSMNMNWLSLSLPERPEAPPSYAEVVTEEQRRNNLAPVSACDDFERALQGPLFAYIQEFRFLPAALASEIDPNPDQSADDRPSCPSR", "values": [{"measurement": "binding", "setting": "[6]", "value": "binds"}]}
